Measurements taken from patent US7585967.
No constants are given. Whether binding was seen depends on the method and setting. Some entries that bind do so weakly or less than the wild type. Tags and fused reporters may be left off the sequences shown.

Chains of the proteins cited; added tags and fusions are not shown. Lines headed by an entry give the natural chain unless they say otherwise; changes in a name come on top.
UniProt P52799: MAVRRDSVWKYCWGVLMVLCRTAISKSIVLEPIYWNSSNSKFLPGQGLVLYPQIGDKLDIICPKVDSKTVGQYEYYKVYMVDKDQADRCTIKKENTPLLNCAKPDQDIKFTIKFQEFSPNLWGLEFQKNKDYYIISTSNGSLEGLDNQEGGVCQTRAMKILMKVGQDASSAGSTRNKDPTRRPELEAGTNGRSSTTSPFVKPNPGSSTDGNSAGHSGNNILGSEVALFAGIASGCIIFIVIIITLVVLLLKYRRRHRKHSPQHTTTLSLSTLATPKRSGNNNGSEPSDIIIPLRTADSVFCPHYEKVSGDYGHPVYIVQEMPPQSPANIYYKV

Target: ephrin B2 on tumor cells of human Kaposi's sarcoma biopsy sections (human) (UniProt P52799)
Test: staining of KS biopsy section with AP fusion

binding: binds
B1: B4EC-AP reagent (protein fusion of EphB4 ectodomain with placental alkaline phosphatase) (receptor, not shown: large carriers)
chain: LEETLLNTKLETADLKWVTFPQVDGQWEELSGLDEEQHSVRTYEVCDVQRAPGQAHWLRTGWVPRRGAVHVYATLRFTMLECLSLPRAGRSCKETFTVFYYESDADTATALTPAWMENPYIKVDTVAAEHLTRKRPGAEATGKVNVKTLRLGPLSKAGFYLAFQDQGACMALLSLHLFYKKCAQLTVNLTRFPETVPRELVVPVAGSCVVDAVPAPGPSPSLYCREDGQWAEQPVTGCSCAPGFEAAEGNTKCRACAQGTFKPLSGEGSCQPCPANSHSNTIGSAVCQCRVGYFRARTDPRGAPCTTPPSAPRSVVSRLNGSSLHLEWSAPLESGGREDLTYALRCRECRPGGSCAPCGGDLTFDPGPRDLVEPWVVVRGLRPDFTYTFEVTALNGVSSLATGPVPFEPVNVTTDREVPPAVSDIRVTRSSPSSLSLAWAVPRAPSGAVLDYEVKYHEKGAEGPSSVRFLKTSENRAELRGLKRGASYLVQVRARSEAGYGPFGQEHHSQTQLDESEGWREQLA
